PubChem BioAssay AID493014 (National Center for Advancing Translational Sciences (NCATS), 2011)
Some of the results follow. The main result of the screen is listed elsewhere. These columns were measured beside it and carry no call. The list favours compounds with an active or inconclusive main result. Potencies come from curve fits of mixed quality, noted in brackets.

Experiment: qHTS Assay to Find Inhibitors of Chronic Active B-Cell Receptor Signaling
Settings: ABC-DLBCL IkBa-CBG/CBR reporter, luminescence ratio (green luciferase fused to IkBa over red control in TMD8 lymphoma cells), 4 h
Method in brief: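 Doxycycline induced both beetle luciferases in TMD8 lymphoma cells; IKK-driven degradation limits the IkappaBalpha-fused green signal, while red luminescence normalises for cell number and nonspecific effects. Compounds tested up to 46 uM, 4 hrs.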

[1] = measured here: CBR red luminescence, cell number
[2] = measured here: IkBa-CBG green luminescence

Compound | AC50 [1] | AC50 [2]
Cn1c(/C(C#N)=C/C2CC=CCC2)nc2ccccc21 (stereo unspecified) | 0.58 µM [falling, full curve, poor fit] | 
O=c1oc2ccccc2cc1-c1ccc(O)cc1 | 2.59 µM [rising, full curve, poor fit] | 
CC(C)(C)c1cc(C(C)(C)C)c2oc(=O)c(-c3nc4ccc(C(=O)O)cc4[nH]3)cc2c1 | 1.3 µM [falling, partial curve, poor fit] | 
CCN(CC)c1ccc(/C=N/NC(=O)c2cnccn2)cc1 | 35.5 µM [falling, single point] | 22.4 µM [falling, single point]
O=C(CSc1c(Cl)cccc1Cl)NC1CCCc2ccccc21 (stereo unspecified) | 32.6 µM [rising, single point] | 
Cc1ccc2c(COC(=O)CNC(=O)c3ccccc3)cc(=O)oc2c1 | 29.1 µM [rising, single point] | 
CCn1c(C(=O)N2CCCC(C(=O)NCCCc3ccccc3)C2)cc2sccc21 (stereo unspecified) | 23.1 µM [falling, single point] | 
COCCNCCCCOc1c(Cl)cc(C)cc1Br | 10 µM [falling, partial curve, poor fit] | 
CC(C)NC(=O)CSc1ccccc1C(=O)N1CCN(S(=O)(=O)/C=C/c2ccccc2)CC1 | 20.6 µM [rising, partial curve] | 
O=C(N/N=C/c1ccc(O)cc1)c1[nH]c2ccc(Br)cc2c1-c1ccccc1 | 6.51 µM [rising, full curve] | 2.59 µM [falling, full curve]
CCOc1ncccc1C(=O)OCC(=O)c1ccc(Cl)s1 | 35.5 µM [rising, single point] | 
Cc1nnc(SCc2cnc(-c3ccccc3)o2)[nH]c1=O | 32.6 µM [falling, single point] | 
CCOC(=O)CSc1nc2ccccc2n1C(=O)OCC | 1.58 µM [falling, full curve] | 
O=C(/C=C/c1cccc(F)c1)Nc1nccs1 | 8.91 µM [falling, partial curve, poor fit] | 
Cc1ccc(N/C(N)=N/c2nc(CSc3nnc(C)s3)cc(=O)[nH]2)c(C)c1 | 3.16 µM [rising, partial curve, poor fit] | 6.31 µM [falling, single point]
COc1ccc(C(=NNc2ccccc2C(=O)O)c2ccc(OC)cc2)cc1 | 23.1 µM [falling, partial curve, poor fit] | 
CCc1cc(C(N)=O)c(NC(=O)c2ccc(OC)cc2)s1 | 1.84 µM [rising, partial curve, poor fit] | 
Cc1c(-n2cc(C(=O)c3cc(Br)ccc3O)cc(C#N)c2=O)c(=O)n(-c2ccccc2)n1C | 6.51 µM [falling, single point] | 
CC1CC(C)CN(C(=O)COC(=O)CCCN2C(=O)c3cccc4cccc(c34)C2=O)C1 (stereo unspecified) | 0.562 µM [rising, full curve, poor fit] | 
CCCc1cc(C(=O)Nc2ccc(F)c(Cl)c2)no1 | 8.91 µM [falling, partial curve] | 
CCc1nccn1CCC(=O)NC1CCCc2c1cnn2-c1ccc(F)cc1F (stereo unspecified) | 15.8 µM [rising, partial curve, poor fit] | 

Compound | AC50 [1] | AC50 [2]
CC1C(=O)Nc2ccc(S(=O)(=O)NCCc3ccc(Cl)cc3)cc2NC1=O (stereo unspecified) | 20 µM [falling, single point] | 
Cc1cc(C)nc(NS(=O)(=O)c2ccc(NC(=O)NC3CCCCC3)cc2)n1 | 2.06 µM [rising, partial curve, poor fit] | 
COC(=O)[C@]1(Cc2ccccc2)N[C@H](c2ccc(-c3ccc(F)cc3)cc2)[C@@H]2C(=O)N(C)C(=O)[C@@H]21 | 23.1 µM [falling, single point] | 
Cc1csc(NC(=O)CNC(=O)OCc2ccccc2)n1 | 11.2 µM [falling, partial curve, poor fit] | 
CN1/C(=C/c2cc[n+](C)c3ccccc23)C=Cc2ccccc21 | 2.24 µM [rising, full curve, poor fit] | 
COc1ccccc1NC(=O)c1cc2c(CO)cnc(C)c2oc1=Nc1ccc(OC)c(OC)c1 | 2.24 µM [rising, partial curve, poor fit] | 
Cc1ccc2cc(CN(CC(C)C)S(=O)(=O)c3ccccc3)c(=O)[nH]c2c1 | 0.794 µM [falling, full curve, poor fit] | 
Cc1cc(OCC(=O)NCCCN(C)C)cc(C)c1Br | 15.8 µM [falling, partial curve, poor fit] | 
Cc1ccc(-n2c(Cc3noc4ccccc34)n[nH]c2=S)cc1 | 1.26 µM [falling, full curve] | 
C(=N\N1CCN(c2ccccn2)CC1)/c1ccccn1 | 35.5 µM [falling, single point] | 
CCCSc1nnc(NC(=O)Nc2ccccc2)s1 | 0.731 µM [rising, full curve, poor fit] | 
COc1ccccc1N1CCN(C(=O)c2sc3nc(C)nc(N4CCN(c5ccccn5)CC4)c3c2C)CC1 | 20 µM [falling, single point] | 
Cc1ccc(S(=O)(=O)c2ccccc2)cc1S(=O)(=O)N1CCOCC1 | 23.1 µM [rising, single point] | 
O=C(Oc1ccnc2cc(Cl)ccc12)N1CCCCCC1 | 35.5 µM [falling, single point] | 
CCN(CC)C(=O)COc1ccc(/C(C)=N/NC(=O)c2ccccc2Br)cc1 | 11.2 µM [falling, partial curve] | 
O=S(=O)(c1ccc(SCCOc2cccc(Br)c2)nc1)N1CCCC1 | 7.31 µM [falling, partial curve] | 
Nc1nc(SCC(=O)O)[nH]c(=O)c1NC(=O)c1ccccc1F | 0.631 µM [rising, full curve, poor fit] | 
CCOC(=O)C1=CN(CC)S(=O)(=O)NC1CCc1ccccc1 (stereo unspecified) | 29.1 µM [falling, single point] | 
CCOc1ccccc1NC(=O)c1cc(C(=O)c2cc(OC)ccc2O)coc1=N | 18.4 µM [falling, partial curve, poor fit] | 
COc1ccccc1Nc1ncc(C(=O)Nc2ccc(OC)c(OC)c2)c2ccccc12 | 20.6 µM [rising, partial curve, poor fit] | 
Cc1ccc(N2CC(C(=O)Nc3ccc(C)c(S(=O)(=O)N(C)C)c3)CC2=O)cc1 (stereo unspecified) | 14.1 µM [falling, single point] | 

Three of the compounds above, with tabs:
Compound	AC50 [1]	AC50 [2]
Cc1cc(OCC(=O)NCCCN(C)C)cc(C)c1Br	15.8 µM [falling, partial curve, poor fit]	
Cc1ccc(-n2c(Cc3noc4ccccc34)n[nH]c2=S)cc1	1.26 µM [falling, full curve]	
C(=N\N1CCN(c2ccccn2)CC1)/c1ccccn1	35.5 µM [falling, single point]	

(list continues)

Compound | AC50 [1] | AC50 [2]
Cn1c(SCC(=O)Nc2ccc(NC(=O)c3cccc(F)c3)cc2)nnc1-c1ccncc1 | 7.94 µM [rising, partial curve, poor fit] | 
O=c1[nH]nc(CNc2ccc(OC(F)(F)F)cc2)c2ccccc12 | 5.62 µM [rising, single point] | 
CC(C)c1csc(CN2CCC(N3CCC(C(=O)NCC4CCCO4)CC3)CC2)n1 (stereo unspecified) | 5.62 µM [rising, partial curve, poor fit] | 
CCCN1CN(Cc2ccccc2)CC2=C1CC(C)(C)CC2=O | 0.316 µM [falling, full curve, poor fit] | 
O=C(CSc1ncnc2[nH]ncc12)Nc1cccc(Oc2ccccc2)c1 | 25.1 µM [falling, single point] | 
Cc1ccc(/C=C/C(=O)NCc2cccs2)c(C)c1 | 28.2 µM [falling, single point] | 
C/C(=N\NC(=O)c1cc(C)[nH]n1)c1ccc(-c2ccccc2)cc1 | 5.62 µM [rising, full curve] | 
CCOP(=O)(OCC)/C(=N/OC(=O)c1ccc(OC)cc1)C(N)=O | 35.5 µM [rising, single point] | 
COc1ccccc1C(=O)NNC(=O)c1ccc(Br)cc1 | 10 µM [falling, single point] | 
O=C(/C=C/c1ccccc1)Nc1cccnc1Oc1ccccc1F | 7.08 µM [falling, partial curve] | 
COc1ccc(S(=O)(=O)Nc2cccc(-c3ccc4nncn4n3)c2)cc1F | 35.5 µM [rising, single point] | 22.4 µM [falling, single point]
Cc1nc2ccccc2c(=O)n1/N=C/c1c(O)ccc2ccccc12 | 8.91 µM [falling, partial curve] | 
Cc1noc(C)c1Cn1nc(C(=O)O)c2ccccc2c1=O | 11.2 µM [rising, single point] | 
CCN1C(=S)SC(=O)C1=C1C=C(C)N(CCO)C(C)=C1 | 3.98 µM [rising, full curve, poor fit] | 
Cc1ccc(-n2c(C)nc3oc4ccccc4c(=O)c3c2=O)cc1 | 2.82 µM [falling, full curve, poor fit] | 
Cc1sc2ncn(CC(=O)N(CC(=O)NC3CCCC3)Cc3cccs3)c(=O)c2c1C | 15.8 µM [rising, single point] | 
Cc1cccc(C(=O)Nc2cccc3cccnc23)c1 | 2.82 µM [rising, partial curve, poor fit] | 
CCN(CC)c1ccc(/C=C(/C#N)c2nc3ccccc3[nH]2)c(OC(C)C)c1 | 1.41 µM [falling, full curve, poor fit] | 
COc1ccc(Cl)cc1C(=O)NNC(=O)c1ccc(F)c(S(=O)(=O)N2CCOCC2)c1 | 16.4 µM [falling, partial curve, poor fit] | 
Cc1ccc(S(=O)(=O)NNC(=O)CCC(=O)Nc2ccc(C)c(C)c2)cc1 | 22.4 µM [falling, single point] | 
